Results deposited as PubChem BioAssay AID1224826 (NIAID, 2016)

Aim: 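Knock-downs that raise or lower Tnf reporter signal after endotoxin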 (primary screen)
System: RAW264.7 G9 macrophages from mouse bearing reporters for p65 (GFP) and the Tnf promoter (mCherry)
Reagent: siRNA pool against mouse genes, 100 nM
Timing: 16 h of LPS stimulation, after 2 days of siRNA transfection
Conditions: bacterial lipopolysaccharide (Salmonella minnesota R595), 10 ng/ml
Measurement: 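Nuclear mCherry signal of the Tnf promoter reporter measured by imaging after background removal, scaled to each plate median and turned into robust z-scores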
Reading the numbers: Tnf reporter robust z-score: higher = stronger Tnf promoter reporter signal after LPS; Tnf reporter intensity: higher = stronger Tnf promoter reporter signal
Call rule: 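a well counts as active at a score of -1.3 or below (Tlr4 knock-down control median) or above 3 (raised signal); controls and wells holding fewer than 50 cells are excluded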
Meaning of the calls: active = Tnf reporter clearly lowered or raised; inactive = no clear change in Tnf reporter
This is a random part of about 17,000 deposited reagents. About 1,110 of them (6.6%) count as active. 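Active means lowered or raised reporter signal; replicate intensities are raw and not normalised per plate.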

no.	gene	Tnf reporter robust z-score	fewer than 50 cells in well	Tnf reporter intensity, replicate 1	Tnf reporter intensity, replicate 2	outcome
1	Taar8b	0.61	enough cells in well	270	336	inactive
2	Letm1	1.8	enough cells in well	273	262	inactive
3	Or11g1		fewer than 50 cells per well; well left out of calls	56.9	33.7	inactive
4	Tktl2	1.76	enough cells in well	370	92.7	inactive
5	4933428P19Rik	-0.27	enough cells in well	127	164	inactive
6	Hoxb13	1.32	enough cells in well	306	305	inactive
7	Or4a79	1.27	enough cells in well	264	168	inactive
8	5330439M10Rik	-1.32	enough cells in well	99.6	61.8	active
9	Mlkl	-1.13	enough cells in well	110	107	inactive
10	Pheta1		fewer than 50 cells per well; well left out of calls	414	249	inactive
11	Zfp979	-0.28	enough cells in well	223	64.8	inactive
12	Rbm19	-0.48	enough cells in well	178	70.6	inactive
13	Gypc	-0.29	enough cells in well	230	78.3	inactive
14	Cst6	-0.52	enough cells in well	188	108	inactive
15	Or10s1	-0.4	enough cells in well	122	121	inactive
16	Msln	0.95	enough cells in well	349	270	inactive
17	Aspdh	-0.62	enough cells in well	242	51.1	inactive
18	Miip	-0.73	enough cells in well	96.7	158	inactive
19	Adgre4	-0.51	enough cells in well	153	289	inactive
20	Slc9a9		fewer than 50 cells per well; well left out of calls	42.1	48.4	inactive
21	Gadd45b	-0.33	enough cells in well	258	182	inactive
22	Wdr18	-0.04	enough cells in well	126	119	inactive
23	Pomt1	-0.79	enough cells in well	164	156	inactive
24	Ms4a1	0.51	enough cells in well	362	196	inactive
25	Gemin6	-0.35	enough cells in well	176	149	inactive
26	Or7g28		fewer than 50 cells per well; well left out of calls	34.5	36.7	inactive
27	Gm5134	3.68	enough cells in well	452	305	active
28	Magi2	-0.99	enough cells in well	116	108	inactive
29	Awat2	0.2	enough cells in well	163	193	inactive
30	Slc37a1		fewer than 50 cells per well; well left out of calls	87.8	50.6	inactive
31	Alpi		fewer than 50 cells per well; well left out of calls	57.9	80.8	inactive
32	Krt27	-0.32	enough cells in well	184	108	inactive
33	Slc37a4		fewer than 50 cells per well; well left out of calls	85.6	102	inactive
34	Or51b6b		fewer than 50 cells per well; well left out of calls	52.8	84	inactive
35	Adam18		fewer than 50 cells per well; well left out of calls	67.9	74	inactive
36	Ear1	0.41	enough cells in well	213	192	inactive
37	Cyp2j6	0.65	enough cells in well	259	180	inactive

Laid out differently: 4 of the entries above
Gypc — Tnf reporter robust z-score = -0.29; fewer than 50 cells in well = enough cells in well; Tnf reporter intensity, replicate 1 = 230; Tnf reporter intensity, replicate 2 = 78.3; outcome = inactive
Cst6 — Tnf reporter robust z-score = -0.52; fewer than 50 cells in well = enough cells in well; Tnf reporter intensity, replicate 1 = 188; Tnf reporter intensity, replicate 2 = 108; outcome = inactive
Or10s1 — Tnf reporter robust z-score = -0.4; fewer than 50 cells in well = enough cells in well; Tnf reporter intensity, replicate 1 = 122; Tnf reporter intensity, replicate 2 = 121; outcome = inactive
Msln — Tnf reporter robust z-score = 0.95; fewer than 50 cells in well = enough cells in well; Tnf reporter intensity, replicate 1 = 349; Tnf reporter intensity, replicate 2 = 270; outcome = inactive

The list goes on.
no.	gene	Tnf reporter robust z-score	fewer than 50 cells in well	Tnf reporter intensity, replicate 1	Tnf reporter intensity, replicate 2	outcome
38	Grik4	0.3	enough cells in well	257	282	inactive
39	Rps28		fewer than 50 cells per well; well left out of calls	83.7	56.7	inactive
40	Mael	-1.1	enough cells in well	133	40.7	inactive
41	Sox21	0.6	enough cells in well	143	98.9	inactive
42	Tcof1	0.27	enough cells in well	251	148	inactive
43	Atp6v1a	0.49	enough cells in well	204	188	inactive
44	Enc1	0.25	enough cells in well	262	235	inactive
45	Atp2c1	0.01	enough cells in well	132	181	inactive
46	Sphk1	-1.08	enough cells in well	125	97.7	inactive
47	Or10h28	-0.69	enough cells in well	85.3	88.6	inactive
48	Ptpn13	-1.93	enough cells in well	93.4	60.4	active
49	Prl7a2	-0.06	enough cells in well	123	131	inactive
50	Dars1	-0.51	enough cells in well	187	194	inactive
51	Terf2ip	0.55	enough cells in well	289	150	inactive
52	A830019P07Rik	-0.99	enough cells in well	110	106	inactive
53	Rinl	0.04	enough cells in well	135	151	inactive
54	Slc25a41		fewer than 50 cells per well; well left out of calls	0	0	inactive
55	Ascl1	1.03	enough cells in well	172	250	inactive
56	Rgs4		fewer than 50 cells per well; well left out of calls	106	74.2	inactive
57	Sf3a1	-1.53	enough cells in well	167	77.2	active
58	Abhd15		fewer than 50 cells per well; well left out of calls	181	17	inactive
59	Nadsyn1		fewer than 50 cells per well; well left out of calls	137	117	inactive
60	Gemin8	1.02	enough cells in well	272	285	inactive
61	Ripk2	0.22	enough cells in well	195	187	inactive
62	Aqp7	-1.13	enough cells in well	105	104	inactive
63	Rps3	-1.44	enough cells in well	147	114	active
64	Gatd1	0.02	enough cells in well	230	183	inactive
65	Camk1g	1.09	enough cells in well	285	202	inactive
66	Bub1	-0.57	enough cells in well	151	133	inactive
67	Nudt22	-1.12	enough cells in well	222	31.9	inactive
68	Zpbp		fewer than 50 cells per well; well left out of calls	46.9	21.3	inactive
69	Spint1	0.17	enough cells in well	120	91.6	inactive
70	Ier3ip1	-0.98	enough cells in well	192	51.6	inactive
71	Lrrc8c	0.12	enough cells in well	168	137	inactive
72	Agpat3	-0.15	enough cells in well	165	208	inactive
73	Sp140l2	-0.82	enough cells in well	119	109	inactive
74	Syt7	-1.66	enough cells in well	54.3	52.7	active
75	Pnrc2	0.98	enough cells in well	320	261	inactive
